Measurements from the supplement of paper PMC4635364.
Where a name gives a salt, the structure may show the parent alone. The list shows a part of the results. This data set is noisy: repeats of one test often differ as much as different tests do.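 Cells: ReNCell VM human fetal ventral-midbrain neural progenitors, differentiated mitogen-free. Blinded raters compared doublecortin-stained (early neurons) or tyrosine hydroxylase-stained (dopaminergic neurons) images with untreated wells, where 0 means no change. After repeats and both raters were averaged, compounds scoring 2 or above became hits for retesting.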

System: ReNCell VM
Assay: dopaminergic neuron differentiation score (TH+ cell fraction vs untreated, manual image score) (score (0 to 3)); higher = more TH+ dopaminergic neuron differentiation
Settings: library: Spectrum; 2 uM; 4 weeks; BDNF 10 ng/ml + GDNF 10 ng/ml

Compound | dopaminergic neuron differentiation score
CCCCCCOC(=O)NC(=N)c1ccc(NCc2nc3cc(C(=O)N(CCC(=O)OCC)c4ccccn4)ccc3n2C)cc1 | inactive: 0
CN(C/C=C/C#CC(C)(C)C)Cc1cccc2ccccc12 | inactive: 0
NC(Cn1ccc(=O)c(O)c1)C(=O)O (configuration not stated) | inactive: 0
CCCCNc1cc(C(=O)O)cc(S(N)(=O)=O)c1Oc1ccccc1 | inactive: 0
O=S(=O)(O)CCS | inactive: 0
CCOC(=O)OC(C)OC1=C(C(=O)Nc2ccccn2)N(C)S(=O)(=O)c2ccccc21 (configuration not stated) | inactive: 0
CCC[C@@H]1C[C@@H](C(=O)N[C@@H]([C@H]2O[C@H](SC)[C@H](O)[C@@H](O)[C@H]2O)[C@H](C)Cl)N(C)C1 | inactive: 1
Cc1coc2c1C(=O)C(=O)c1c-2ccc2c1CCCC2(C)C | inactive: 0
COc1cc(O)cc(OC)c1OC | inactive: 1
C[C@H]1[C@H]2CC[C@H]3[C@@H]4CC=C5C[C@@H](N(C)C)CC[C@]5(C)[C@H]4CC[C@]23CN1C | inactive: 0
C[C@]12CC[C@@H]3c4ccc(O)cc4CC[C@H]3[C@@H]1C[C@@H](O)[C@@H]2O | inactive: 0
C[C@@H]1O[C@@H](O[C@H]2[C@H](Oc3cc(O)c4c(c3)O[C@H](c3ccc(O)cc3)CC4=O)O[C@H](CO)[C@@H](O)[C@@H]2O)[C@H](O)[C@H](O)[C@H]1O | inactive: 0
C[C@]12CCC(=O)C=C1CC[C@@H]1[C@@H]2C(=O)C[C@@]2(C)[C@H]1CC[C@]2(O)C(=O)CO | inactive: 0
CN[C@H]1CC[C@@H](c2ccc(Cl)c(Cl)c2)c2ccccc21 | inactive: 0
Cc1ccc(S(=O)(=O)NCl)cc1 | inactive: 0
CC(C)NCC(O)COc1cccc2ccccc12 (racemic) | inactive: 0
O=c1oc2ccccc2c(O)c1Cc1c(O)c2ccccc2oc1=O | inactive: 0
CN1CCc2cccc3c2[C@H]1Cc1ccc(O)c(O)c1-3 | inactive: 1

Individual results from the results shown:
O=S(=O)(O)CCS – dopaminergic neuron differentiation score: inactive: 0
C[C@]12CCC(=O)C=C1CC[C@@H]1[C@@H]2C(=O)C[C@@]2(C)[C@H]1CC[C@]2(O)C(=O)CO – dopaminergic neuron differentiation score: inactive: 0

Same assay, conditions: library: Tocriscreen; 2 uM; 4 weeks; BDNF 10 ng/ml + GDNF 10 ng/ml

Compound | dopaminergic neuron differentiation score
O=C(O)c1ccc(-c2c[nH]c3ncc(-c4ccccc4)cc23)cc1C1CCCC1 | inactive: 0
CCCN(C/C=C/I)C1CCc2cccc(O)c2C1 (configuration not stated) [8-Hydroxy-PIPAT oxalate] | inactive: 0
CN(CCc1ccc(Cl)c(Cl)c1)CC(O)COc1ccc(NS(C)(=O)=O)cc1 (configuration not stated) | inactive: 0
CC1=C(C(=O)OCCN(Cc2ccccc2)c2ccccc2)C(c2cccc([N+](=O)[O-])c2)C(P2(=O)OCC(C)(C)CO2)=C(C)N1 (configuration not stated) [Efonidipine hydrochloride monoethanolate] | inactive: 1
